This is an account of results in article PMC4299809.

This assay deals with HisDapGalNAcT2 (N-terminally HisDap-tagged soluble human UDP-GalNAc:polypeptide N-acetylgalactosaminyltransferase 2, amino acids 52-571) (human) (UniProt Q10471). Put plainly: SEC-MALS; Yarra SEC-2000 column; 100 uL injected at 0.13 mg/mL; running buffer 50 mM Tris, 300 mM NaCl, pH 8.0 (legend of Figure 3: 150 mM NaCl); 0.5 mL/min; both purified. On the technique in general: Size exclusion chromatography separates by hydrodynamic size, large species first.

Results are given in words; binding and its absence hold for the method and conditions named.

Consider “HisDapGalNAcT2 (N-terminally HisDap-tagged soluble human UDP-GalNAc:polypeptide N-acetylgalactosaminyltransferase 2, amino acids 52-571) (from UniProt Q10471 52-571) (enzyme)”, for which the binding entry is “no binding (tested: 0.13 mg/mL)”.
